PubChem BioAssay AID743458, Peter MacCallum Cancer Centre – 2014
Assay: 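Retest earlier hits with independent siRNAs per gene for restoring vorinostat sensitivity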 (follow-up of hits). Cell system: human HCT116-VR colon cancer cells made resistant to vorinostat. Reagent: single siRNA or pool against human genes, 25 nM per single siRNA. Duration: about 72 h after transfection, including 24 h of drug. Treatment: vorinostat, 2.5 µM final, for 24 h. Detection: 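Live-cell fluorescent viability and luminescent caspase 3/7 activity after vorinostat treatment, background subtracted, mean of duplicate plates, as fold change over mock-transfected wells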. Reading the numbers: viability relative to mock: higher = more living cells than mock; caspase activity relative to mock: higher = more apoptosis than mock. Hit rule: 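An siRNA counts as active if classed as reduced viability or as caspase activation, otherwise inactive; a hit class needed wells that remained healthy in the absence of drug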.
In all, the deposit lists about 1,800 reagents; below is an unselected part. Over the whole deposit, 732 (41%) are marked active. 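Calls are per siRNA reagent; a gene was deemed confirmed only if most of its four siRNAs scored.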 A number with no mark means an inactive call. The numbers tell different reagents against one gene apart.

target	reagent no.	viability relative to mock	caspase activity relative to mock	viability hit class	caspase hit class
OSBPL6 (GeneID 114880)	1	0.66	0.9	no change	no change
OSBPL6 (GeneID 114880)	2	0.89 (active)	4.37	no change	caspase activation
OSBPL6 (GeneID 114880)	3	0.52 (active)	2.75	reduced viability	caspase activation
OSBPL6 (GeneID 114880)	4	0.69 (active)	3.12	no change	caspase activation
NPBWR2 (GeneID 2832)	1	0.96	1.91	no change	no change
NPBWR2 (GeneID 2832)	2	0.7 (active)	3.5	no change	caspase activation
NPBWR2 (GeneID 2832)	3	0.78	1.06	no change	no change
NPBWR2 (GeneID 2832)	4	0.84 (active)	2.59	no change	caspase activation
KCNMB3 (GeneID 27094)	1	0.45 (active)	4.17	reduced viability	caspase activation
KCNMB3 (GeneID 27094)	2	0.72	2.15	no change	no change
KCNMB3 (GeneID 27094)	3	0.84	0.96	no change	no change
KCNMB3 (GeneID 27094)	4	0.8	2.19	no change	no change
MIIP (GeneID 60672)	1	0.3 (active)	4.26	reduced viability	caspase activation
MIIP (GeneID 60672)	2	0.54 (active)	4.12	reduced viability	caspase activation
MIIP (GeneID 60672)	3	0.91	1.03	no change	no change
MIIP (GeneID 60672)	4	0.83	0.9	no change	no change
RASGRP2 (GeneID 10235)	1	0.21 (active)	7.65	reduced viability	caspase activation
RASGRP2 (GeneID 10235)	2	0.66	1.23	no change	no change
RASGRP2 (GeneID 10235)	3	1.03	1.19	no change	no change
RASGRP2 (GeneID 10235)	4	0.78	1.19	no change	no change
ABHD16B (GeneID 140701)	1	0.48 (active)	5.25	reduced viability	caspase activation
ABHD16B (GeneID 140701)	2	0.76	1.85	no change	no change
ABHD16B (GeneID 140701)	3	0.85	1.06	no change	no change
ABHD16B (GeneID 140701)	4	0.74	0.91	no change	no change
IQSEC1 (GeneID 9922)	1	0.8	1.08	no change	no change
IQSEC1 (GeneID 9922)	2	0.4 (active)	2.58	reduced viability	caspase activation
IQSEC1 (GeneID 9922)	3	0.28 (active)	3.27	reduced viability	caspase activation
IQSEC1 (GeneID 9922)	4	0.42 (active)	2.3	reduced viability	no change
SAP130 (GeneID 79595)	1	0.84	2.46	no change	no change
SAP130 (GeneID 79595)	2	0.42 (active)	3.76	reduced viability	caspase activation
SAP130 (GeneID 79595)	3	0.51 (active)	4.98	reduced viability	caspase activation
SAP130 (GeneID 79595)	4	0.7 (active)	4.13	no change	caspase activation
ACVR1C (GeneID 130399)	1	0.72	2.44	no change	no change
ACVR1C (GeneID 130399)	2	0.86	0.91	no change	no change
ACVR1C (GeneID 130399)	3	0.81 (active)	4.61	no change	caspase activation
ACVR1C (GeneID 130399)	4	0.98	0.96	no change	no change
CNGA1 (GeneID 1259)	1	1.14	1.27	no change	no change
CNGA1 (GeneID 1259)	2	1.02	1.01	no change	no change
CNGA1 (GeneID 1259)	3	0.5 (active)	2.06	reduced viability	no change
CNGA1 (GeneID 1259)	4	0.57	2.34	no change	no change
NR1H2 (GeneID 7376)	1	0.56 (active)	1.85	reduced viability	no change
NR1H2 (GeneID 7376)	2	0.15 (active)	3.89	reduced viability	caspase activation
NR1H2 (GeneID 7376)	3	1.06	1.04	no change	no change
NR1H2 (GeneID 7376)	4	0.64	1.71	no change	no change
NR1H2 (GeneID 7376)	5	0.86 (active)	5.48	no change	caspase activation
LRRC14 (GeneID 9684)	1	0.92 (active)	3.48	no change	caspase activation
LRRC14 (GeneID 9684)	2	0.4 (active)	1.76	reduced viability	no change
LRRC14 (GeneID 9684)	3	0.84 (active)	2.84	no change	caspase activation
LRRC14 (GeneID 9684)	4	0.22	3.31	no change	no change
MLIP (GeneID 90523)	1	0.34 (active)	3.4	reduced viability	caspase activation
MLIP (GeneID 90523)	2	1.03	1.03	no change	no change
MLIP (GeneID 90523)	3	0.46	4.1	no change	no change
MLIP (GeneID 90523)	4	0.88 (active)	2.84	no change	caspase activation
CASTOR3P (GeneID 352954)	1	0.2 (active)	3.6	reduced viability	caspase activation
CASTOR3P (GeneID 352954)	2	0.41 (active)	4.53	reduced viability	caspase activation
CASTOR3P (GeneID 352954)	3	0.74	1.4	no change	no change
CASTOR3P (GeneID 352954)	4	0.66	1.77	no change	no change
SKIC2 (GeneID 6499)	1	0.81 (active)	2.99	no change	caspase activation
SKIC2 (GeneID 6499)	2	0.92	1.38	no change	no change
SKIC2 (GeneID 6499)	3	0.72	1.46	no change	no change
SKIC2 (GeneID 6499)	4	0.55 (active)	3.19	reduced viability	caspase activation
USP11 (GeneID 8237)	1	0.68	2.55	no change	no change
USP11 (GeneID 8237)	2	0.98	1.89	no change	no change
USP11 (GeneID 8237)	3	0.92	0.85	no change	no change
USP11 (GeneID 8237)	4	0.83	1.18	no change	no change
GLYCTK (GeneID 132158)	1	0.98 (active)	3	no change	caspase activation
GLYCTK (GeneID 132158)	2	0.92	0.88	no change	no change
GLYCTK (GeneID 132158)	3	0.91	1.84	no change	no change
GLYCTK (GeneID 132158)	4	0.43 (active)	2.92	reduced viability	caspase activation
EIF4A1 (GeneID 1973)	1	0.48 (active)	0.64	reduced viability	no change
EIF4A1 (GeneID 1973)	2	0.55 (active)	1.13	reduced viability	no change
EIF4A1 (GeneID 1973)	3	0.54 (active)	1.41	reduced viability	no change
EIF4A1 (GeneID 1973)	4	0.44 (active)	0.46	reduced viability	no change
